From patent US4356188A, “1-Naphthyl-acetic acid derivatives and their therapeutic applications” (Institut de Recherche Scientifique "I.R.S.", priority 1978, dated 1982)

Test: in vivo
Conditions: rat, po
Method: Groups of 5 male CH. River rats, having an average weight of 125 g, kept on a water diet for 18 hours prior to the test, are orally administered the test materials, dissolved in neutral olive oil (1 ml/100 g), at dosages of 250-500-1000 and 2000 mg/kg.
The death rate is recorded 7 days after the administration: the lethal dose 50 (LD 50) is determined according to the method by Litchfield & Wilcoxon.

Compound `COc1ccc2cc([C@H](C)C(=O)O)ccc2c1` [naproxen] has an LD50 at 168 h of 290 mg/kg.
